PMC10651491
These are yes or no findings as the source states them, for the method shown. In cells and extracts the contact can be indirect. Some entries that bind do so weakly or less than the wild type. Tags and fused reporters may be left off the sequences shown.

Biological target: T1, Myc-DUSP4 (UniProt Q13115)
T1 sequence: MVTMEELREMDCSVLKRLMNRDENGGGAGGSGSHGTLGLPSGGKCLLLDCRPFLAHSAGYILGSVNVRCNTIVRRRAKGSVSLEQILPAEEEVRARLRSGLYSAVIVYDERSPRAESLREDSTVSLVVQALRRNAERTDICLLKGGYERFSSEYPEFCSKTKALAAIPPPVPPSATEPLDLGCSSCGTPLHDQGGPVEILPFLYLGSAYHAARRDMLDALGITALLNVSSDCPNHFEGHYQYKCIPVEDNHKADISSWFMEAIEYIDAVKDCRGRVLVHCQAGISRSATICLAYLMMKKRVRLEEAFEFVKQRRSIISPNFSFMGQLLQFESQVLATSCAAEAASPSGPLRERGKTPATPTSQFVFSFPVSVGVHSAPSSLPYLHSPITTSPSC
Assay: co-IP; lysates of HEK293T cells transfected with ectopic Flag-DOCK1 and Myc-DUSP4; precipitating antibody and buffer not told

- binding: binds
Substance: Flag-DOCK1 (dedicator of cytokinesis 1) (from UniProt Q14185 1-1865)
